Experimental findings from the supplement of paper PMC11006884 are described below.

Sequences of proteins named here, by UniProt entry; tags and fusion partners are left off. A change or cut given only in a name is not applied to a line headed by its entry.
UniProt O14617: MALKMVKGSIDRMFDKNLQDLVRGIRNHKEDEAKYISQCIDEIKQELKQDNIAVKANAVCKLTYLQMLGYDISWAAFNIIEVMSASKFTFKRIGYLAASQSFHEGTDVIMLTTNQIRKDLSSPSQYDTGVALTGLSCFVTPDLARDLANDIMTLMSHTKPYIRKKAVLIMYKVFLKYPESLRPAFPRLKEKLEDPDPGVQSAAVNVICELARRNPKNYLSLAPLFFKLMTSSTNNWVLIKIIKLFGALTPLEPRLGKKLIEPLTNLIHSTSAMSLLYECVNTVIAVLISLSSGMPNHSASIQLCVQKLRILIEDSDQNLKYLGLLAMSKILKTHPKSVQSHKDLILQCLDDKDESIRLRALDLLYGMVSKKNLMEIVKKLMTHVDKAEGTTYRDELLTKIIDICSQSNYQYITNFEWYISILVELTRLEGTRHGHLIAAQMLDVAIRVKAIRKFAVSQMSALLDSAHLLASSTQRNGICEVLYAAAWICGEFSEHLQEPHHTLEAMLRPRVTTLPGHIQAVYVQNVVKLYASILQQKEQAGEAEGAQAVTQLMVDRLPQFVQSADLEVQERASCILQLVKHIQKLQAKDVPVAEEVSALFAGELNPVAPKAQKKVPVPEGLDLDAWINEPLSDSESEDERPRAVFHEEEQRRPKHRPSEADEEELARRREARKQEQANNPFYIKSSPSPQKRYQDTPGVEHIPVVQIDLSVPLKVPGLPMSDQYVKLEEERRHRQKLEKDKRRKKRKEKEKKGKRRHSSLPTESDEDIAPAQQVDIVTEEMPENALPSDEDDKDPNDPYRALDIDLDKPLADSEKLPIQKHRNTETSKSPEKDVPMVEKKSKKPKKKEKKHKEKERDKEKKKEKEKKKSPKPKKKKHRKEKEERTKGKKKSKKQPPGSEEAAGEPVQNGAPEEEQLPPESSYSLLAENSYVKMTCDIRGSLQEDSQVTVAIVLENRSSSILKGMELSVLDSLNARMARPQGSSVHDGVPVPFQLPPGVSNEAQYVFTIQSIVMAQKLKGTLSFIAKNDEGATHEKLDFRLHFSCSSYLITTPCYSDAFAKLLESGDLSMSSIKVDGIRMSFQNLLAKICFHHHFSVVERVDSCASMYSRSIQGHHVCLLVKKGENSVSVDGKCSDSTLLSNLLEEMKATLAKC
UniProt O14980, whole entry, looked up: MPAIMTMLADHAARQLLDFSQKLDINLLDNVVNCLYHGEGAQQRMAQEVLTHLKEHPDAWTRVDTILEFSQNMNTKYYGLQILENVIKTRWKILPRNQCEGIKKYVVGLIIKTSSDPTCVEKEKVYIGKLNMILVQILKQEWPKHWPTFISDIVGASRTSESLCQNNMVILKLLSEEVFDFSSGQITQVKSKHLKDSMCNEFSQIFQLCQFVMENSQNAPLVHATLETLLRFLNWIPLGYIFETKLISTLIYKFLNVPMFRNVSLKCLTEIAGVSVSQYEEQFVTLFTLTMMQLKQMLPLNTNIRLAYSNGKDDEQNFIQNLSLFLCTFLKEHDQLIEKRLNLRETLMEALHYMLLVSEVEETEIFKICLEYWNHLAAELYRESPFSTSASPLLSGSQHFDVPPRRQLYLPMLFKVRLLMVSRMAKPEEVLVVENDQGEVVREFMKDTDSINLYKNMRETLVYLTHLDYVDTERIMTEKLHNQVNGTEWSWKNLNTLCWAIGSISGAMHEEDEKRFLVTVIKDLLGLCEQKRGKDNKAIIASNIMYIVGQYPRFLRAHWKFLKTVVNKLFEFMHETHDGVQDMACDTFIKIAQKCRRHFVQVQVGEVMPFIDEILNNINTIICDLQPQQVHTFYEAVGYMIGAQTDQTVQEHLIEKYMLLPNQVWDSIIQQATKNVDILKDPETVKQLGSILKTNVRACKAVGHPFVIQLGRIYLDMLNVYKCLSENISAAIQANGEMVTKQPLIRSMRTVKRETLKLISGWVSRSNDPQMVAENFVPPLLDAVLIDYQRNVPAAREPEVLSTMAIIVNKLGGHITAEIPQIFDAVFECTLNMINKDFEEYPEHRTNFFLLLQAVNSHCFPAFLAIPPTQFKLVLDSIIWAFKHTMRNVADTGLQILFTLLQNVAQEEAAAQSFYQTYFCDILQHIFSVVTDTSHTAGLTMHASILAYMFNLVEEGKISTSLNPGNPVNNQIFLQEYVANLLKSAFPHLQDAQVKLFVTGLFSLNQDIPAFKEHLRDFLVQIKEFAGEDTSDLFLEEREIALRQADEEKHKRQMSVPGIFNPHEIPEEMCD
UniProt O14745: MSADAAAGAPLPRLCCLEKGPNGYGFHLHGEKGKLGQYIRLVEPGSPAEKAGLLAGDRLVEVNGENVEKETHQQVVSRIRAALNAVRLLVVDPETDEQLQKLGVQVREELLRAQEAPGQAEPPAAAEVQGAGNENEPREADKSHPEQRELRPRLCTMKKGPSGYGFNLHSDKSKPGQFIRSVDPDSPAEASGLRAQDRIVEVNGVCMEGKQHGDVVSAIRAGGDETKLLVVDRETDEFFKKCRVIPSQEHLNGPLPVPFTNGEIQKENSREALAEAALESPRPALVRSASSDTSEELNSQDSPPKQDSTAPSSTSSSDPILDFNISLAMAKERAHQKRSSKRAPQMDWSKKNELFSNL
UniProt O00151: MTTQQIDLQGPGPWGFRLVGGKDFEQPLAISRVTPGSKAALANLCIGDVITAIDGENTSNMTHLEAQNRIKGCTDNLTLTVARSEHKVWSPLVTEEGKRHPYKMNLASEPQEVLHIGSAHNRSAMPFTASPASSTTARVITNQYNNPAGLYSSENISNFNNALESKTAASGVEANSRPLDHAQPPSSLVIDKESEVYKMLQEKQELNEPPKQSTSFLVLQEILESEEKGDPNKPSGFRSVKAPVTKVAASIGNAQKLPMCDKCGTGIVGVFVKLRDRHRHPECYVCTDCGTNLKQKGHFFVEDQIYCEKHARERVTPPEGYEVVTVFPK
UniProt O00410: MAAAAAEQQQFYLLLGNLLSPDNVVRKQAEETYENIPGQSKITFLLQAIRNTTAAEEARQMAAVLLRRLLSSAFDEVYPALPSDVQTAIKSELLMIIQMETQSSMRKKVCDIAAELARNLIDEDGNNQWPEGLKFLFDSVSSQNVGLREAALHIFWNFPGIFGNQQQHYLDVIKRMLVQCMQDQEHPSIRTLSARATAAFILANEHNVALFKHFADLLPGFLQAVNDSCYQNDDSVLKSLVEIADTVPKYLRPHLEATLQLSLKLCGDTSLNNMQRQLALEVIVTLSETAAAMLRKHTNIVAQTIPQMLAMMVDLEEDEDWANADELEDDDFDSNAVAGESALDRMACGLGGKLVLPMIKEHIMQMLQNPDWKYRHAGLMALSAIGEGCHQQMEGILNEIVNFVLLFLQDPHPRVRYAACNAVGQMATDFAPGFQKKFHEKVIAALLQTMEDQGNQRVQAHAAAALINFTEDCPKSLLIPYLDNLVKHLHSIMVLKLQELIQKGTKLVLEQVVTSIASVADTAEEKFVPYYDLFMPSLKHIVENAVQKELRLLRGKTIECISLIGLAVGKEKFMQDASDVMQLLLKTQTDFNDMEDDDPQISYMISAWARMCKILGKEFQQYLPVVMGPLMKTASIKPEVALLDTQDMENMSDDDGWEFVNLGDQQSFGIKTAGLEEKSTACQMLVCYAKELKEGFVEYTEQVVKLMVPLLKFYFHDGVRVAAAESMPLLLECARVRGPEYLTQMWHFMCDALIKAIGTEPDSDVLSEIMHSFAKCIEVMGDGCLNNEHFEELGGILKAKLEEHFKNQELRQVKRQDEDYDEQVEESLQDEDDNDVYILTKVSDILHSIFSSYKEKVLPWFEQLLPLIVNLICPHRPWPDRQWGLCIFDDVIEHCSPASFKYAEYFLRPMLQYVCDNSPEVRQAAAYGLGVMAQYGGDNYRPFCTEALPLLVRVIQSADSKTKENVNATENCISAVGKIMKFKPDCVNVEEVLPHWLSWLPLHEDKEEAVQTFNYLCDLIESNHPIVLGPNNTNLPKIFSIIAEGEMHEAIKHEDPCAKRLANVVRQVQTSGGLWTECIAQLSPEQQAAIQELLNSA
UniProt O15173: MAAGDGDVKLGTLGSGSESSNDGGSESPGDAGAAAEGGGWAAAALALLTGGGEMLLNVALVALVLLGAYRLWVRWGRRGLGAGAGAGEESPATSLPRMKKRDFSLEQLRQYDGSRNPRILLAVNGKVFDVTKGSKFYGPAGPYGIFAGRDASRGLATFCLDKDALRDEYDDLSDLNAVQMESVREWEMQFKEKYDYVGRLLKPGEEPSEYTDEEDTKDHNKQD
UniProt O00213: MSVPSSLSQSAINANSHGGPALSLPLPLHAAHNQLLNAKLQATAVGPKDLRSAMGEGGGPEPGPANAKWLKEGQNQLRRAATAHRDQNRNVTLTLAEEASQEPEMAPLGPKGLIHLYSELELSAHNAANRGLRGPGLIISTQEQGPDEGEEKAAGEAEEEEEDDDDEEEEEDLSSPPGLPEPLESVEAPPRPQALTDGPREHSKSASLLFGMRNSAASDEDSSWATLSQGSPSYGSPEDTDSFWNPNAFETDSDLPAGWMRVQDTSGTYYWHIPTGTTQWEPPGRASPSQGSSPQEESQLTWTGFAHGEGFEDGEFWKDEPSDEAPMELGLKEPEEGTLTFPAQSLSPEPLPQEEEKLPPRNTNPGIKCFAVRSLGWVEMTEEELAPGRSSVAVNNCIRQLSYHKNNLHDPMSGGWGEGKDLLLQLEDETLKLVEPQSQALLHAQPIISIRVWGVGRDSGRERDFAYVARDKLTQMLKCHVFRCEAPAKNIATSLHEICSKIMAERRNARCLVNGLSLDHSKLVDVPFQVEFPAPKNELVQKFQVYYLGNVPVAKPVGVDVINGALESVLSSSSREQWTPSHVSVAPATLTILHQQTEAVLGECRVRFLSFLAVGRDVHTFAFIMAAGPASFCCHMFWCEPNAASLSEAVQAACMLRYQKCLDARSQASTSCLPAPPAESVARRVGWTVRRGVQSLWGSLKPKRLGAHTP
UniProt O00566: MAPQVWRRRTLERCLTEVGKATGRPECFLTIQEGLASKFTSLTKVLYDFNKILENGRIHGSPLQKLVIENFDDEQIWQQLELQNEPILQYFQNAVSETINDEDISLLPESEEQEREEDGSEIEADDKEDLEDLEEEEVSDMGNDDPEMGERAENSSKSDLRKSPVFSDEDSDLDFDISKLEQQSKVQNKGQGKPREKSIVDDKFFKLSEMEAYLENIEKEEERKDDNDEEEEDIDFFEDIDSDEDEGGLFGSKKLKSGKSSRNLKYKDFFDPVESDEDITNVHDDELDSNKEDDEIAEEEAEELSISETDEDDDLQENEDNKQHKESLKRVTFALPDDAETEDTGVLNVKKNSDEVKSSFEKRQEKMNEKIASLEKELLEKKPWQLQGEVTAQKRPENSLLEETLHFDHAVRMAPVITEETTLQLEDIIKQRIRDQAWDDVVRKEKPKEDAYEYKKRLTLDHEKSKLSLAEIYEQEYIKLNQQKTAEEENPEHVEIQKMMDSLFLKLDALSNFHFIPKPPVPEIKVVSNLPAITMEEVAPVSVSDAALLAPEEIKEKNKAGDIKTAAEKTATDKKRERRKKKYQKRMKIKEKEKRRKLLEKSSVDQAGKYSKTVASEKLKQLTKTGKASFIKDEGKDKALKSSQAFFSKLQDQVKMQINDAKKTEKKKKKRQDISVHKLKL
UniProt O00429, whole entry, looked up: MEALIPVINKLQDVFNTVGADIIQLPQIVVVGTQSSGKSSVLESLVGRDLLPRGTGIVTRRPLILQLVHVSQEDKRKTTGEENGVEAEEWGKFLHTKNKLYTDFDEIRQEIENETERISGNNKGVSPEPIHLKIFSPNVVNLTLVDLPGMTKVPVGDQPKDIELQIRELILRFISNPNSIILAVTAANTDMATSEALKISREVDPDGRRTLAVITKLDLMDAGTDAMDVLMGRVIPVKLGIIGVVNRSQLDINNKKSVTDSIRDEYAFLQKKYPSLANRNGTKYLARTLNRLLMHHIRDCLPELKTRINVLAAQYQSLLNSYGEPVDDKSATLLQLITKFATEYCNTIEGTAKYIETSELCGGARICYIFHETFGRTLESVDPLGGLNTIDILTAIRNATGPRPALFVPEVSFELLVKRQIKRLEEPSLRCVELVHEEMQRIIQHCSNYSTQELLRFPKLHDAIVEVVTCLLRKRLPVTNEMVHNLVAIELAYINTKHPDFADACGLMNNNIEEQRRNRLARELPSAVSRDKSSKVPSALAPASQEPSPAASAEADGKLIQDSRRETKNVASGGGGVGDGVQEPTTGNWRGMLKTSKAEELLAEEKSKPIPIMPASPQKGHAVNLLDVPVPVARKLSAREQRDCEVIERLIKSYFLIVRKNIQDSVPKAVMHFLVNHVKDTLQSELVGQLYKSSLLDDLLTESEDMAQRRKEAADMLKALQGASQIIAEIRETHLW
UniProt O14519: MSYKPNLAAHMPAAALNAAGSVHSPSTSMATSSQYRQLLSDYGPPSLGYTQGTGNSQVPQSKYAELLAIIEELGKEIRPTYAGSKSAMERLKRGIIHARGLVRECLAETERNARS

The list shows a part of the results, in another mix than the full data.

Compound in this assay: COC(=O)C#Cc1ccccc1 [methyl 3-phenylpropiolate]
Put plainly: log2 ratio of iodoacetamide-alkyne labeling of the cysteine site, DMSO over compound (competition); higher = stronger covalent engagement of the cysteine by the compound, active = 1 or more. To be noted: 500 µM; treatment time 1 h; system: HEK293T cell lysate. Put shortly: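 Reporter intensities give each cysteine's log2 competition ratio as the mean of control channels over the mean of compound channels. The samples were HEK293T lysate (2 mg/mL) given vehicle or electrophile (500 µM, 1 h, ambient temperature), then iodoacetamide alkyne (1 h), followed by click coupling to sCIP-TMT reagents, pooling, trypsin digestion overnight at 37 °C, streptavidin enrichment, acid elution, Orbitrap Eclipse LC-MS/MS with FAIMS and FragPipe quantification. Duplicate channels and three replicates were run, and cysteines quantified in only one replicate were discarded.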
Take POLR3A C883 (UniProt O14802): the “log2 ratio of iodoacetamide-alkyne labeling” value (“log2 ratio” for short) was inactive: 0.187.
Regarding CD3EAP C55 (UniProt O15446), the “log2 ratio” value was inactive: 0.552.
Turning to AP3D1 C137 (UniProt O14617), the “log2 ratio” value was inactive: 0.262.
With XPO1 C829 (UniProt O14980), the “log2 ratio” value is inactive: 0.057.
In the case of TNFRSF10B C341 (UniProt O14763), the “log2 ratio” value was inactive: -0.256.
As to SUPT5H C740 (UniProt O00267), the “log2 ratio” value is inactive: 0.00252.
As for SLC9A3R1 C16 (UniProt O14745), the “log2 ratio” value was inactive: -0.0097.
Take PDLIM1 C73 (UniProt O00151): the “log2 ratio” value is inactive: -0.0138.
UniProt O14979_C277: the “log2 ratio” value is inactive: -0.198.
On to NKRF C453 (UniProt O15226), for which the “log2 ratio” value is inactive: 0.34.
INPPL1 C5 (UniProt O15357): the “log2 ratio” value was inactive: 0.416.
As for KDM6A C384 (UniProt O15550), the “log2 ratio” value is inactive: 0.257.
The result for PHGDH C254 (UniProt O43175) reads inactive: 0.208.
The value for POLRMT C413 (UniProt O00411) was inactive: 0.16.
On to XPO1 C34 (UniProt O14980), for which the “log2 ratio” value is inactive: -0.072.
Regarding PHGDH C295 (UniProt O43175), the “log2 ratio” value was inactive: 0.0411.
The result for IPO5 C733 (UniProt O00410) reads inactive: 0.0253.
For the target ARID1A C336 (UniProt O14497), the “log2 ratio” value is inactive: 0.481.
For KIF2A C596 (UniProt O00139), the “log2 ratio” value was inactive: -0.0646.
On to OGT C962 (UniProt O15294), for which the “log2 ratio” value was inactive: -0.0164.
Turning to DVL2 C354 (UniProt O14641), the “log2 ratio” value was inactive: 0.289.
The result for TRAFD1 C476 (UniProt O14545) reads active: 1.55.
Take IPO5 C915 (UniProt O00410): the “log2 ratio” value is inactive: -0.00533.
On to IPO5 C750 (UniProt O00410), for which the “log2 ratio” value is inactive: 0.168.
Turning to PGRMC2 C159 (UniProt O15173), the “log2 ratio” value is inactive: 0.159.
Take OGT C323 (UniProt O15294): the “log2 ratio” value was inactive: 0.0604.
On to IRS4 C314 (UniProt O14654), for which the “log2 ratio” value is inactive: 0.142.
Consider IRS4 C332 (UniProt O14654), for which the “log2 ratio” value is inactive: 0.39.
As for UniProt O00213_C672, the “log2 ratio” value was inactive: 0.552.
For the target MPHOSPH10 C27 (UniProt O00566), the “log2 ratio” value is inactive: 0.0995.
As for DNM1L C446 (UniProt O00429), the “log2 ratio” value is inactive: 0.102.
CDK2AP1 C105 (UniProt O14519): the “log2 ratio” value was inactive: 0.0674.
For the target PFAS C1285 (UniProt O15067), the “log2 ratio” value was active: 1.36.
As to EXOC5 C194 (UniProt O00471), the “log2 ratio” value was inactive: 0.167.
In the case of NVL C448 (UniProt O15381), the “log2 ratio” value was inactive: 0.0738.
Consider MYO1C C802 (UniProt O00159), for which the “log2 ratio” value was inactive: 0.993.
With XPO1 C1070 (UniProt O14980), the “log2 ratio” value was inactive: 0.0562.
